{"source": "patent EP4806905A1", "about": "“PEPTIDE, PEPTIDE COMPLEX, PHARMACEUTICAL COMPOSITION, COMPOSITION FOR CELL CULTURE, AND COMPOSITION FOR MEDICAL USE, DIAGNOSTIC USE, OR RESEARCH USE” (PeptiDream Inc., priority 2023, dated 2025)", "key": {"[1]": {"test_system": "TCF/LEF Reporter-HEK 293 cells", "assay": "Evaluation of Wnt signal activation capability, TCF/LEF reporter assay", "type": "cell-based", "conditions": "dimer structure numbers 1 to 43; classes 2-A to 2-E; tested at 0.1/1/10/100/1,000 nM depending on the dimer", "procedure": "In order to evaluate the Wnt signal activation capability of each of the synthesized peptide complexes (dime structure numbers 1 to 67), transcriptional activity was evaluated using a TCF/LEF reporter.\nTCF/LEF Reporter-HEK 293 cells (BPS Bioscience) were cultured in EMEM (Fuji FILM) containing 10% FBS (Thermo Fisher Scientific), 50 µg/mL Gentamicin (Nacalai Tesque), and 400 µg/mL Geneticin (Thermo Fisher Scientific).\nThe cells were detached using TrypLE (Thermo Fisher Scientific) and then suspended in EMEM containing 10% FBS, 50 µg/mL Gentamicin, and 10 mM LiCl (Sigma).\nThe cells were seeded into a white 96-well plate (Thermo Fisher Scientific) for cell adhesion and luminescence detection at a rate of 35,000 cells per well, and were then cultured overnight. […]\nThe ONE-Glo Luciferase Assay System (Peomega) was added and shaken for 4 minutes, and the resulting luminescent signals were detected using a SpectraMax Paradigm multimode microplate reader (Molecular Devices).\nThe thus obtained signals were analyzed using a GraphPad Prism, and the percentage activity was calculated with the maximum value of the signal value induced by Wnt3a deemed to be 100% and the signal value with no stimulus deemed to be 0%. […]"}, "Frizzled-2 (FZD2)": {"biological_target": "T1, Frizzled-2 (FZD2) (Mus musculus, UniProt Q9JIP6)", "T1 construct": "purchased R&D systems 1307-FZ", "assay": "Evaluation of binding activity to Frizzled using ELISA (Frizzled-2)", "conditions": "peptide complex (linker structure number 9 added to the peptide) diluted to 10 nM; absorbance at 450 nm minus wells with no added peptide complex", "procedure": "(§1) In order to evaluate the binding activity of the synthesized peptide complexes (peptide complexes having the linker structure number 9 added to peptide sequence numbers 1 to 78) to Frizzled, a binding activity evaluation using the ELISA method was conducted using the steps described below.\n(§2) Biotin-labeled polyclonal anti-human IgG (eBioscience; 13-4998) was added to a streptavidin-coated 96-well plate (Thermo; 436014) in an amount of 200 µg per well, and left to stand for 30 minutes.\n(§3) Following washing three times with PBS-T, 3 pmol of Fc-tagged Frizzled-2 (R&D systems; 1307-FZ), Frizzled-7 (R&D systems; 6178-FZ), or Frizzled-8 (R&D systems; 6129-FZ) was added per well and left to stand for 30 minutes to immobilize each Frizzled on the plate.\n(§4) Following washing three times with PBS-T, the peptide complex diluted to 10 nM was added to Frizzled-2 and Frizzled-7, the peptide complex diluted to 500 nM was added to Frizzled-8, and the plate was left to stand for one hour. […]\n(§5) Using an Infinite M Nano* (TECAN), the absorbance was measured at 450 nm. The binding signal for each peptide complex was calculated by subtracting the absorbance in those wells containing no added peptide complex from the absorbance in those wells containing the added peptide."}, "Frizzled-7 (FZD7)": {"biological_target": "T2, Frizzled-7 (FZD7) (Homo sapiens, UniProt O75084)", "T2 construct": "purchased R&D systems 6178-FZ", "assay": "Evaluation of binding activity to Frizzled using ELISA (Frizzled-7)", "conditions": "peptide complex (linker structure number 9 added to the peptide) diluted to 10 nM; absorbance at 450 nm minus wells with no added peptide complex", "procedure": "as §1, §2, §3, §4, §5"}, "Frizzled-8 (FZD8)": {"biological_target": "T3, Frizzled-8 (FZD8) (Homo sapiens, UniProt Q9H461)", "T3 construct": "purchased R&D systems 6129-FZ", "T3 sequence (Q9H461 28-158 limits assumed)": "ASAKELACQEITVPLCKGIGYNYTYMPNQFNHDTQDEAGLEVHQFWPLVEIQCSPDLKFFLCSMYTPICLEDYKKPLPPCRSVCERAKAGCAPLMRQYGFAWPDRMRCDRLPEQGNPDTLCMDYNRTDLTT", "assay": "Evaluation of binding activity to Frizzled using ELISA (Frizzled-8)", "conditions": "peptide complex (linker structure number 9 added to the peptide) diluted to 500 nM; absorbance at 450 nm minus wells with no added peptide complex", "procedure": "as §1, §2, §3, §4, §5"}}, "note": "Not every detail of the peptide structures is certain; ends, links or a residue may be inferred. Numbered stars: 1 amine (or outer) side, 2 acyl side, 3 side chain; on linkers, the order of the positions; unused ones are H or OH. Bridge positions count the residues as written; N and C are the ends. Square brackets hold non-standard residues; d marks the D form. Triazole bridges read from a SMILES are 1,4-linked. Peptide text beside a SMILES is read from it. I, II: the chains in the order shown. X2 = CN([C@@H](Cc1cccc(C(=O)O)c1)C(=O)[*:2])[*:1]; Nle(6-morpholino) = N[C@@H](CCCCN1CCOCC1)C(=O)O; Trp(7-aza) = N[C@@H](Cc1c[nH]c2ncccc12)C(=O)O; Lys(N3) = [N-]=[N+]=NCCCC[C@H](N)C(=O)O; NMe4Pal = CN[C@@H](Cc1ccncc1)C(=O)O; NMeF = CN[C@@H](Cc1ccccc1)C(=O)O; Tic = O=C(O)[C@@H]1Cc2ccccc2CN1; PEG4 = NCCOCCOCCOCCOCCC(=O)O; NMeV = CN[C@H](C(=O)O)C(C)C; Pra = C#CC[C@H](N)C(=O)O", "data": [{"smiles": "CC[C@H](C)[C@@H]1NC(=O)[C@H](CC(=O)O)NC(=O)[C@H](CO)NC(=O)[C@@H](Cc2ccccc2)NC(=O)CSC[C@@H](C(=O)NCC(=O)NCCOCCOCCOCCOCCC(=O)N[C@@H](Cc2cn(CCCC[C@H](NC(=O)CCOCCOCCOCCOCCNC(=O)CNC(=O)[C@@H]3CSCC(=O)N[C@@H](Cc4ccccc4)C(=O)N[C@@H](CCCNC(=N)N)C(=O)N[C@@H](Cc4c[nH]c5ncccc45)C(=O)N[C@@H](CC(=O)O)C(=O)N[C@@H](C(C)C)C(=O)N[C@@H](CCCCN4CCOCC4)C(=O)N(C)[C@@H](Cc4cccc(C(=O)O)c4)C(=O)N[C@@H](CCC(=O)O)C(=O)N[C@@H](CCC(=O)O)C(=O)N[C@@H](Cc4c[nH]c5ncccc45)C(=O)N[C@@H](CC(N)=O)C(=O)N4Cc5ccccc5C[C@H]4C(=O)N[C@@H](CC(=O)O)C(=O)N3)C(N)=O)nn2)C(N)=O)NC(=O)[C@@H](CO)NC(=O)[C@H](C(C)C)N(C)C(=O)[C@H]([C@@H](C)CC)NC(=O)[C@H](Cc2ccncc2)N(C)C(=O)[C@H]([C@@H](C)O)NC(=O)[C@H](C(C)C)NC(=O)[C@H](Cc2ccccc2)N(C)C(=O)[C@H](Cc2ccc(O)cc2)NC(=O)[C@H](CCCNC(=N)N)NC1=O", "note": "[Dimer structure number 62] (I: {CH2CO}-FR[Trp(7-aza)]DV[Nle(6-morpholino)][X2]EE[Trp(7-aza)]N[Tic]DCG[PEG4][Lys(N3)]-NH2 / II: {CH2CO}-[dF]SDIRY[NMeF]VT[NMe4Pal]I[NMeV][dS]CG[PEG4][Pra]-NH2; triazole I:17-II:17; thioether I:N-I:14, II:N-II:14)", "values": [{"measurement": "TCF/LEF Reporter Assay Result", "setting": "[1]", "value": "2-C (peptide complexes that exhibited 50% or more activity when 10 nM of the peptide complex was added)"}, {"measurement": "ELISA signal Frizzled-2 (FZD2)", "setting": "Frizzled-2 (FZD2)", "value": 0.3}, {"measurement": "ELISA signal Frizzled-7 (FZD7)", "setting": "Frizzled-7 (FZD7)", "value": 0.3}, {"measurement": "ELISA signal Frizzled-8 (FZD8)", "setting": "Frizzled-8 (FZD8)", "value": 0.1}]}]}
